In article PMC5374406, “The Phosphorylation of PDX-1 by Protein Kinase CK2 Is Crucial for Its Stability” (Pharmaceuticals, 2016):
These are yes or no findings as the source states them, for the method shown. Binding seen in cells or lysates may run through a third protein. Some binding calls cover weakened binding; strength is not graded here.

Protein sequences, listed by entry. Tags and fused reporters are not part of them. Lines headed by an entry give the natural chain unless they say otherwise; changes in a name come on top.
UniProt P52946: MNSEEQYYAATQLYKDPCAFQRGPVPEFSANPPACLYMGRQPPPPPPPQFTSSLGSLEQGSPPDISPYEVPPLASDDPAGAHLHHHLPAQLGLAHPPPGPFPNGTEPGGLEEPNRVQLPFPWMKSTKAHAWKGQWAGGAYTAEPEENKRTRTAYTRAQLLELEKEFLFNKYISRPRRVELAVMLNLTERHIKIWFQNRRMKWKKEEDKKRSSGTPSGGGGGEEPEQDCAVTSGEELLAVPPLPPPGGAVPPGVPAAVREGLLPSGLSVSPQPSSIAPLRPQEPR
UniProt O43791: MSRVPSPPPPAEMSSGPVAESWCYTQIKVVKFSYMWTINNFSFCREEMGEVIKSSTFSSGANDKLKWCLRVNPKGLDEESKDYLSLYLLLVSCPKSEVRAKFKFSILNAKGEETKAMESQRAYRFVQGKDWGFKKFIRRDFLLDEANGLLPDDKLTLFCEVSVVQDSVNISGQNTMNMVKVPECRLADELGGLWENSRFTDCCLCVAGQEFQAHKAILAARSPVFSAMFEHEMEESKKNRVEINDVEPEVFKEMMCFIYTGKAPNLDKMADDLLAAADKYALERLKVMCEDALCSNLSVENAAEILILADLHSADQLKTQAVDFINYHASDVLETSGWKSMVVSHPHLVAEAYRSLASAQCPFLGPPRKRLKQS
UniProt Q6ZWS8: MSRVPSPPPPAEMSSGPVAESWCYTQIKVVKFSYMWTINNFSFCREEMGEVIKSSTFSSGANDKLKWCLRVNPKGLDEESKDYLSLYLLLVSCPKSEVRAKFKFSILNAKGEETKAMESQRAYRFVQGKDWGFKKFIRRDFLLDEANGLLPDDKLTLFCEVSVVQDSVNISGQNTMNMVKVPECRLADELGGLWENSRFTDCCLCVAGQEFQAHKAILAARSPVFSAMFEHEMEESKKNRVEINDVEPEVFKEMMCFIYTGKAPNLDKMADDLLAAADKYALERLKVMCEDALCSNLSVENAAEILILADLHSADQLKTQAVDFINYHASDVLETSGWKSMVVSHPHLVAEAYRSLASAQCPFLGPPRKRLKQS

What was measured:
[1] = molecular target: PDX-1 (pancreatic duodenal homeobox 1 protein), wild type, expressed from pcDNA3.1-PDX-1 (mouse) (UniProt P52946); assay: co-IP; MIN6 cells transfected with PDX-1 and FLAG-PCIF1 for 24 h; precleared extract incubated with a rabbit PDX-1 antibody for 2 h, protein A sepharose, washed with PBS; blot with FLAG M2 antibody and PDX-1 antiserum
[2] = molecular target: GST-PDX-1 wild type (mouse) (UniProt P52946); assay: pull-down; 10 ug purified GST-tagged PDX-1 immobilised on GSH-sepharose in PBS-T (PBS pH 7.4, 1% Tween 20), incubated 2 h at 4 °C with 7.5 uL in vitro translated [35S]-methionine labeled PCIF1; SDS-PAGE, Coomassie and autoradiography; only the target purified
[3] = molecular target: GST-PDX-1 T231A/S232A (CK2-phosphodeficient mutant) (mouse) (UniProt P52946); assay: as above
[4] = molecular target: PDX-1, endogenous in MIN6 cells (mouse (endogenous in MIN6)) (UniProt P52946); assay: proximity ligation; Duolink in situ PLA in MIN6 cells with PDX-1 rabbit antiserum and SPOP B-8 mouse antibody; 5 h glucose starvation, then 5 mM or 25 mM glucose for 4 h, with 10 uM CX-4945 or DMSO; dots counted in 50 cells

In the case of “FLAG-tagged PCIF1 (human SPOP) from pFLAG-CMV-2-SPOP (from UniProt O43791 1-374)”, the binding [1] is reported as “binds”.
In the case of “PCIF1 (human), in vitro translated and [35S]-methionine labeled, from pET28a-PCIF-1 (from UniProt O43791 1-374)”, the binding [2] is reported as “binds” and the binding [3] is reported as “binds”.
“PCIF1, endogenous in MIN6 cells (from UniProt Q6ZWS8 1-374)” was tested, and the binding [4] was “binds”.
